Experimental data published in PubChem BioAssay AID485314 (National Center for Advancing Translational Sciences (NCATS), 2010).
About 4,500 (1.3%) of roughly 340,000 compounds were called active. The shares of active, inactive and inconclusive entries below differ from those in the screen. Calls follow the shape of the dose curve; as a rule, active = well fitted inhibition curve with a large enough effect; inconclusive = small, poorly fitted or top-dose-only effect, or another doubt; inactive = no such curve, though single readings can be large or run the other way. Potencies beside an inconclusive call are fits to weak or partial responses and may not hold up.

The compounds below were run against DNA polymerase beta (Homo sapiens) (UniProt P06746) (assay: qHTS Assay for Inhibitors of DNA Polymerase Beta). Settings: Pol beta primer extension/strand displacement, fluorescence kinetic; activity change, negative = inhibition: at 114 µM (top of the series).
Outline: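 Human Pol beta at 10 nM; strand-displacement substrate 50 nM final. Compound exposure 15 min at room temperature before start, reaction 10 min at room temperature.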
% is scaled to controls: 0 for no effect and ±100 for the full control effect; potency is read from the fitted curve at half-maximal effect.

| Structure (SMILES) | Potency | activity change, negative = inhibition |
| --- | --- | --- |
| COc1ccccc1N(CC(=O)NCc1ccc2c(c1)OCO2)C(=O)CCC(=O)Nc1nccs1 | inactive | – |
| Cc1cccc(CSc2nc3c(c(-c4cccs4)c2C#N)CN(C)CC3)c1 | inconclusive: 89.1 µM [inhibitor, single point] | – |
| O=C(NNc1cccc(Cl)c1)c1cccnc1Oc1ccccc1 | inconclusive: 89.1 µM [inhibitor, single point] | – |
| O=C1NCCCC1C(=O)N/N=C/c1ccccc1 (stereo not given) | inconclusive: 79.4 µM [inhibitor, single point] | – |
| COc1ccc(N2CCN(S(=O)(=O)CCNC(=O)c3ccc(OC(C)C)cc3)CC2)cc1 | inconclusive: 100 µM [inhibitor, single point] | – |
| CC(C)(C)NC(=O)CSc1nnc(SCC(=O)NC(C)(C)C)s1 | inactive | – |
| CCNc1nc(ON=C(C)C)nc(N(C)C)n1 | inactive | – |
| Cc1ccc(Nc2c(-c3ccccc3O)nc3cc(C)ccn23)cc1 | inactive | – |
| CC(=O)NC(Cc1ccc(F)c(F)c1)C(=O)NC1CCN(c2nnnn2-c2ccccc2)CC1 (stereo not given) | inconclusive: 89.1 µM [inhibitor, single point] | – |
| COc1ccc(CNC(=O)CSc2nnc3c(n2)[nH]c2ccc(OC)cc23)cc1 | inconclusive: 39.8 µM [inhibitor, partial curve] | – |
| CCCCc1cn([C@@H](CCCCNC(=O)OC(C)(C)C)C(=O)N2CCN(C(=O)OC(C)(C)C)CC2)nn1 | inconclusive: 89.1 µM [inhibitor, single point] | – |
| Cn1c2ccccc2c(=O)c2ccc(C#CC3(N)CCCCC3)cc21 | active: 35.5 µM | – |
| Cc1ccc(NC(=O)CSc2nc3ccc(NC(=O)c4ccco4)cc3s2)c(C)c1 | inconclusive: 35.5 µM [inhibitor, single point] | – |
| CC(C)(C)Sc1ccc([N+](=O)[O-])cc1C(=O)Nc1ccncc1 | inactive | – |
| CNC(=O)c1c(NC(=O)c2ccc(S(=O)(=O)N3CCCC(C)C3)cc2)sc2c1CCC2 (stereo not given) | inconclusive: 89.1 µM [inhibitor, single point] | – |
| COc1cc2c(cc1OC)-c1cc(NC3CC3)nc(=O)n1CC2 | inconclusive: 100 µM [inhibitor, single point] | – |
| NS(=O)(=O)c1ccc(CCNC(=O)c2ccc(Cn3c(=O)[nH]c4ccccc4c3=O)cc2)cc1 | inconclusive: 0.447 µM [inhibitor, full curve, poor fit] | – |
| CCOc1cc(/C=N/NC(=O)CSc2nnc(C)s2)ccc1OCc1ccccc1Cl | inconclusive: 25.1 µM [inhibitor, full curve] | – |
| NNC(=O)c1oc2nc(-c3ccco3)cc(-c3ccco3)c2c1N | – | inconclusive: -105% [inhibitor] |
| O=C(NCCc1ccccc1)c1cc2sccc2n1Cc1ccc(F)cc1 | inactive | – |
| O=C(N/N=C/c1cc(Cl)cc([N+](=O)[O-])c1O)C1CC1 | inconclusive: 89.1 µM [inhibitor, single point] | – |
| CSc1nc2c(c(=O)[nH]1)C(c1ccccc1Cl)CC(=O)N2 (stereo not given) | inactive | – |

| Structure (SMILES) | Potency | activity change, negative = inhibition |
| --- | --- | --- |
| O=C(O)c1cccnc1SCC(=O)N1CCCCCC1 | inconclusive: 89.1 µM [inhibitor, single point] | – |
| CCOC(=O)C(C)Sc1nc2c(c(=O)[nH]c(=O)n2C)n1C/C=C(/C)Cl (stereo not given) | inconclusive: 7.94 µM [inhibitor, full curve, poor fit] | – |
| CCCCOc1ccc(C(=O)Nc2onc3c2CCCC3)cc1 | inactive | – |
| Cc1ccc(NC(=O)c2ccc([N+](=O)[O-])o2)cc1C | inactive | – |
| CC(=O)CSc1nc(-c2ccccc2)c(-c2ccccc2)o1 | inconclusive: 35.5 µM [inhibitor, single point] | – |
| NC(=O)c1ccc(-n2nnnc2SCC(=O)c2ccc(O)c(O)c2)cc1 | active: 10 µM | – |
| Nc1nc(SCC(=O)Nc2cc(C(F)(F)F)ccc2Cl)[nH]c(=O)c1NC(=O)c1ccco1 | inconclusive: 79.4 µM [inhibitor, single point] | – |
| CCCNC(=O)c1nn2cc(Br)cnc2c1Br | inconclusive: 25.1 µM [inhibitor, full curve] | – |
| COC(=O)c1cc(NC(=O)c2ccc(C)cc2)c(=O)oc1C | inconclusive: 89.1 µM [inhibitor, single point] | – |
| CC(=O)NCCC(=O)Nc1nc(-c2cccs2)c(-c2cccs2)s1 | inconclusive: 10 µM [inhibitor, full curve, poor fit] | – |
| COc1ccc2c(c1)c(CC(=O)O)c(C)n2Cc1ccc(F)cc1 | inactive | – |
| Cc1ccccc1-c1cc(C(=O)N2CCCC2)c2ccccc2n1 | inconclusive: 10 µM [inhibitor, partial curve] | – |
| CSC1=NSC2=NC(=O)/C(=C/c3coc4ccc(O)cc4c3=O)C(=N)N12 | active: 25.1 µM | – |
| O=C1S/C(=C\C=C\c2ccco2)C(=O)N1c1ccc(O)cc1 | active: 7.94 µM | – |
| O=C(CC1S/C(=N/N=C/c2cccs2)NC1=O)Nc1ccc(Cl)cc1 (stereo not given) | inconclusive: 89.1 µM [inhibitor, single point] | – |
| O=C(Nc1ccc2oc(=O)ccc2c1)c1ccc(-c2cccc(Cl)c2)o1 | inactive | – |
| O=C(NCc1cccnc1)c1cnc2ccccc2n1 | inconclusive: 89.1 µM [inhibitor, single point] | – |
| Cc1csc2c(=O)sc(NC(=O)c3ccc(F)cc3Cl)nc12 | – | inconclusive: -42.6% [inhibitor] |
| Cc1ccc(Nc2cc(-c3ccccc3)nc(C)n2)cc1 | inconclusive: 89.1 µM [inhibitor, single point] | – |
| COc1cc(C2C(=O)N(C3CCC(C)CC3)CC(=O)N2CCc2ccc(Cl)cc2)ccc1OC(C)C (stereo not given) | inactive | – |
| Cc1ccc(OC(C)C(=O)Nc2ccc(S(=O)(=O)Nc3nccs3)cc2)cc1 (stereo not given) | inconclusive: 79.4 µM [inhibitor, single point] | – |
| FC(F)(F)c1cnc(C(c2ccccc2)c2ncn[nH]2)c(Cl)c1 (stereo not given) | inactive | – |
| CC(C)c1c(C(=O)N/N=C2\CCc3ccccc32)nnn1-c1nonc1N | inconclusive: 0.282 µM [inhibitor, full curve, poor fit] | – |
| CC1CC2(CCCC2)N(C(=O)N(C)C)c2ccc(F)cc21 (stereo not given) | inconclusive: 0.794 µM [inhibitor, full curve, poor fit] | – |

| Structure (SMILES) | Potency | activity change, negative = inhibition |
| --- | --- | --- |
| CCOC(=O)C(=Nc1ccc(Cl)cc1)NO | inactive | – |
| N#CCC(=O)Nc1ccc(C(=O)OCC(=O)Nc2ccccc2Sc2ccccc2)cc1 | inconclusive: 56.2 µM [inhibitor, partial curve] | – |
| COc1cccc(C(=O)NC(=S)Nc2ccc(Cl)cc2C(=O)O)c1 | inactive | – |
| O=C(COc1ccc2c(-c3ccccc3)cc(=O)oc2c1)NCCCn1ccnc1 | inconclusive: 25.1 µM [inhibitor, partial curve, poor fit] | – |
| COc1ccc(/C=C2\SC(=N)N(c3nccs3)C2=O)cc1OC | inconclusive: 50.1 µM [inhibitor, partial curve] | – |
| Cc1sc2ncn(CC(=O)NCc3ccco3)c(=O)c2c1-c1ccc(F)cc1 | inconclusive: 20 µM [inhibitor, full curve] | – |
| Cc1ccc(S(=O)(=O)c2cn(CC(=O)Nc3ccc4c(c3)OCO4)c3ccc(F)cc3c2=O)cc1 | inactive | – |
| Cn1cc(C(=O)c2ccc(Cl)cc2Cl)cc1C(=O)O | inconclusive: 0.141 µM [inhibitor, full curve, poor fit] | – |
| CC(=O)Oc1ccc(C(=O)Nc2cccc(C(=O)c3cccc(NC(=O)c4ccc(OC(C)=O)cc4)c3)c2)cc1 | active: 12.6 µM | – |
| CCC(C)(C)c1ccc(Oc2cccc(C(=O)O)c2)cc1 | inconclusive: 89.1 µM [inhibitor, single point] | – |
| CCCN(CCC)CCNC(=O)c1cc(Sc2ccc(Cl)cc2)nc2ccccc12 | inactive | – |
| Nc1ncnc2c1ncn2C1OC(CO)C(O)C1N (stereo not given) | inconclusive: 79.4 µM [inhibitor, single point] | – |
| O=C1c2ccccc2CC1Sc1nnc(-c2ccncc2)o1 (stereo not given) | inconclusive: 79.4 µM [inhibitor, single point] | – |
| CC(=O)Nc1ccc(S(=O)(=O)NNC(=O)c2cccc([N+](=O)[O-])c2)cc1 | inconclusive: 25.1 µM [inhibitor, full curve, poor fit] | – |
| CCCC(C(=O)O)N1C(=O)/C(=C/c2cccn2C)SC1=S (stereo not given) | inconclusive: 89.1 µM [inhibitor, single point] | – |
| Cc1ccc(NC(=O)CN(C)C(=O)c2cccnc2Nc2cccc(C(F)(F)F)c2)cc1 | inconclusive: 17.8 µM [inhibitor, full curve, poor fit] | – |
| CCS(=O)(=O)C1=NN2C(=N)/C(=C\c3ccc(OC(=O)c4ccco4)c(Br)c3)C(=O)N=C2S1 | active: 89.1 µM | – |
| Cc1ccc(CSCC(=O)N/N=C/c2ccc(OCC(=O)Nc3ccc(C)cc3)cc2)cc1 | active: 10 µM | – |
| O=C(Cc1cccs1)N1CCC(c2nc3c(nnn3Cc3ccccc3)c(=O)[nH]2)CC1 | inconclusive: 31.6 µM [inhibitor, partial curve, poor fit] | – |
| Cc1ccc(OC(C)C(=O)NCC2(N3CCOCC3)CCCCC2)cc1C (stereo not given) | inconclusive: 56.2 µM [inhibitor, partial curve, poor fit] | – |
| O=C(CSc1nnc(NC(=O)Cc2ccccc2)s1)NCc1ccco1 | inconclusive: 15.8 µM [inhibitor, partial curve] | – |
| Cc1ccc(C)c(NC(=O)Cn2c(=O)oc3cc(S(=O)(=O)NCc4ccccc4)ccc32)c1 | inconclusive: 39.8 µM [inhibitor, single point] | – |

Part of the list above, as tab-separated lines.
Structure (SMILES)	Potency	activity change, negative = inhibition
CC(C)c1c(C(=O)N/N=C2\CCc3ccccc32)nnn1-c1nonc1N	inconclusive: 0.282 µM [inhibitor, full curve, poor fit]	–
CC1CC2(CCCC2)N(C(=O)N(C)C)c2ccc(F)cc21 (stereo not given)	inconclusive: 0.794 µM [inhibitor, full curve, poor fit]	–
CCOC(=O)C(=Nc1ccc(Cl)cc1)NO	inactive	–
N#CCC(=O)Nc1ccc(C(=O)OCC(=O)Nc2ccccc2Sc2ccccc2)cc1	inconclusive: 56.2 µM [inhibitor, partial curve]	–
COc1cccc(C(=O)NC(=S)Nc2ccc(Cl)cc2C(=O)O)c1	inactive	–
O=C(COc1ccc2c(-c3ccccc3)cc(=O)oc2c1)NCCCn1ccnc1	inconclusive: 25.1 µM [inhibitor, partial curve, poor fit]	–
